Assay [1] has as its target T1, Hyaluronan-binding protein involved in hyaluronan (HYBID), Flag-tagged (UniProt Q8BI06).
T1 sequence: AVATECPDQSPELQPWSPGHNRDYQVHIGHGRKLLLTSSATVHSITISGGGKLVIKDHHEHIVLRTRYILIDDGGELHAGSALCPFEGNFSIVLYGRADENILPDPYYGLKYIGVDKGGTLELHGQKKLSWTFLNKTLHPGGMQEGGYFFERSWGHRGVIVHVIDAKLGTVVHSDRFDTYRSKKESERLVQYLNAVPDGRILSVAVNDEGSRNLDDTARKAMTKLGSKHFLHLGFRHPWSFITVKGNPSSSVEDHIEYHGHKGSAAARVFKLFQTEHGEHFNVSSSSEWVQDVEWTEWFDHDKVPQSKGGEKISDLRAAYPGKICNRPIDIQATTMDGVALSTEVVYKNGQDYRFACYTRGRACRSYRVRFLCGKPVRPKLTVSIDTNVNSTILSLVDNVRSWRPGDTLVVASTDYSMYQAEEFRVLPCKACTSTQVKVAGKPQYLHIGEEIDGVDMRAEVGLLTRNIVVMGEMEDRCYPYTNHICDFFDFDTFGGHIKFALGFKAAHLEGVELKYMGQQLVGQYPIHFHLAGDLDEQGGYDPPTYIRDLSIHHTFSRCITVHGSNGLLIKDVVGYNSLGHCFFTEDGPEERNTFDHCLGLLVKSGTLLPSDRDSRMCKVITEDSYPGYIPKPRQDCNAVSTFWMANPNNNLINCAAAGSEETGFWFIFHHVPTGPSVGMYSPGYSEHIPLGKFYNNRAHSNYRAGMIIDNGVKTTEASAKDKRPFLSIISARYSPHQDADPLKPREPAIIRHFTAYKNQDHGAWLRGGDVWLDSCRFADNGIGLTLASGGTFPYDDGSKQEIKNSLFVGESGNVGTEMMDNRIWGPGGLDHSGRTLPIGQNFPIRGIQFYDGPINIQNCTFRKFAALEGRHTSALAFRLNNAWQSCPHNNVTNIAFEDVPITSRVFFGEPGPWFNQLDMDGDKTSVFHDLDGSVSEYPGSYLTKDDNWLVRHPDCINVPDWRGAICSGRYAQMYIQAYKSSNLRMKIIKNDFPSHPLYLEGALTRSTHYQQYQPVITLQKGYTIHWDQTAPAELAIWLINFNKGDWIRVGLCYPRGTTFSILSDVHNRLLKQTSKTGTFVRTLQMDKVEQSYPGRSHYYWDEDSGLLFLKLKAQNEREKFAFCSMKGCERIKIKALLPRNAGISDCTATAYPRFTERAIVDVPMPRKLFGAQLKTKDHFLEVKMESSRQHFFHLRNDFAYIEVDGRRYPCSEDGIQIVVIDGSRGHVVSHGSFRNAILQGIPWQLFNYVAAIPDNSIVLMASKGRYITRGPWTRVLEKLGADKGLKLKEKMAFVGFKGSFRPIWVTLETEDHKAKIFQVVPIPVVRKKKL
Briefly: co-IP; HEK293-T cell lysates incubated with IP-grade antibodies for 1 h, magnetic protein A/G beads, Western blot; IP Flag-HYBID with IB HA-STAT5A, and IP HA-STAT5A with IB Flag-HYBID. In general terms: Immunoblotting shows a protein as a band on a membrane.

Amino acid sequences for entries named in this document (tags omitted).
UniProt P42230: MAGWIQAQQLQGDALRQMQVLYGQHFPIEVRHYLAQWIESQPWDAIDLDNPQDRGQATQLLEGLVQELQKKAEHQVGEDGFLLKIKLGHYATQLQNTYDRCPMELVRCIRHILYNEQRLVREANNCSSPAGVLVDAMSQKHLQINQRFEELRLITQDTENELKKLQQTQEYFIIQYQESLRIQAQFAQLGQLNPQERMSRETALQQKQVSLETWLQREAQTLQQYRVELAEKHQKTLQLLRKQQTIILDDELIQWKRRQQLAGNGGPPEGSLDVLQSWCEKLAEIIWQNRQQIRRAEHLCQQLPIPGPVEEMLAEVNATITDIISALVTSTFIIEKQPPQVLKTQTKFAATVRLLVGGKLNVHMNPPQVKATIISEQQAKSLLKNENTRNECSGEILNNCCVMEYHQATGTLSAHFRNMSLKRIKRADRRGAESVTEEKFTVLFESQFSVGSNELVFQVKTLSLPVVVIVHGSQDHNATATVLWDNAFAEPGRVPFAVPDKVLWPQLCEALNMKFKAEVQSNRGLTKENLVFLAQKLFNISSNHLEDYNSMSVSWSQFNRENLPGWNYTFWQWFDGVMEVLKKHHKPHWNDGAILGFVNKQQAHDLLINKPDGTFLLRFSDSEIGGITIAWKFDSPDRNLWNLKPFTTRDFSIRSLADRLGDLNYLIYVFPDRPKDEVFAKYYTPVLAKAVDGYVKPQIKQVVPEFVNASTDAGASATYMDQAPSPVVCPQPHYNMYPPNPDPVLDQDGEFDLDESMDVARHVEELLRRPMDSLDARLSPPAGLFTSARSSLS

In assay [2] the target is Signal transducer and activator of transcription 5A (STAT5A), HA-tagged, full length (UniProt P42230). Described as above.

No constants are given. Whether binding was seen depends on the method and setting. Binding seen in cells or lysates may run through a third protein. Some binding calls cover weakened binding; strength is not graded here. Tags and fused reporters may be left off the sequences shown.

As to “Signal transducer and activator of transcription 5A (STAT5A), HA-tagged, full length (from UniProt P42230 1-793)”, the binding entry in assay [1] was “binds”.

B1: Hyaluronan-binding protein involved in hyaluronan (HYBID), Flag-tagged (protein, UniProt Q8BI06 31-1361)
chain: AVATECPDQSPELQPWSPGHNRDYQVHIGHGRKLLLTSSATVHSITISGGGKLVIKDHHEHIVLRTRYILIDDGGELHAGSALCPFEGNFSIVLYGRADENILPDPYYGLKYIGVDKGGTLELHGQKKLSWTFLNKTLHPGGMQEGGYFFERSWGHRGVIVHVIDAKLGTVVHSDRFDTYRSKKESERLVQYLNAVPDGRILSVAVNDEGSRNLDDTARKAMTKLGSKHFLHLGFRHPWSFITVKGNPSSSVEDHIEYHGHKGSAAARVFKLFQTEHGEHFNVSSSSEWVQDVEWTEWFDHDKVPQSKGGEKISDLRAAYPGKICNRPIDIQATTMDGVALSTEVVYKNGQDYRFACYTRGRACRSYRVRFLCGKPVRPKLTVSIDTNVNSTILSLVDNVRSWRPGDTLVVASTDYSMYQAEEFRVLPCKACTSTQVKVAGKPQYLHIGEEIDGVDMRAEVGLLTRNIVVMGEMEDRCYPYTNHICDFFDFDTFGGHIKFALGFKAAHLEGVELKYMGQQLVGQYPIHFHLAGDLDEQGGYDPPTYIRDLSIHHTFSRCITVHGSNGLLIKDVVGYNSLGHCFFTEDGPEERNTFDHCLGLLVKSGTLLPSDRDSRMCKVITEDSYPGYIPKPRQDCNAVSTFWMANPNNNLINCAAAGSEETGFWFIFHHVPTGPSVGMYSPGYSEHIPLGKFYNNRAHSNYRAGMIIDNGVKTTEASAKDKRPFLSIISARYSPHQDADPLKPREPAIIRHFTAYKNQDHGAWLRGGDVWLDSCRFADNGIGLTLASGGTFPYDDGSKQEIKNSLFVGESGNVGTEMMDNRIWGPGGLDHSGRTLPIGQNFPIRGIQFYDGPINIQNCTFRKFAALEGRHTSALAFRLNNAWQSCPHNNVTNIAFEDVPITSRVFFGEPGPWFNQLDMDGDKTSVFHDLDGSVSEYPGSYLTKDDNWLVRHPDCINVPDWRGAICSGRYAQMYIQAYKSSNLRMKIIKNDFPSHPLYLEGALTRSTHYQQYQPVITLQKGYTIHWDQTAPAELAIWLINFNKGDWIRVGLCYPRGTTFSILSDVHNRLLKQTSKTGTFVRTLQMDKVEQSYPGRSHYYWDEDSGLLFLKLKAQNEREKFAFCSMKGCERIKIKALLPRNAGISDCTATAYPRFTERAIVDVPMPRKLFGAQLKTKDHFLEVKMESSRQHFFHLRNDFAYIEVDGRRYPCSEDGIQIVVIDGSRGHVVSHGSFRNAILQGIPWQLFNYVAAIPDNSIVLMASKGRYITRGPWTRVLEKLGADKGLKLKEKMAFVGFKGSFRPIWVTLETEDHKAKIFQVVPIPVVRKKKL
As for B1, the binding entry in assay [2] is given as “binds”.
